Experimental data reported in US20250122311A1 (YEDA RESEARCH AND DEVELOPMENT, published 2025).
Results are given in words; binding and its absence hold for the method and conditions named. Some results given as binding are weak or reduced against the parent protein; the word gives no strength.

Legend:
[1] = molecular target: T1, hen-egg white lysozyme (hen, UniProt P00698 19-147); assay: bilayer interferometry, antibody loaded on the sensor, lysozyme at 1000, 250, 100, 25 and 10 nM
T1 construct: also called HEWL

[2] = molecular target: T1, hen-egg white lysozyme; assay: yeast surface display of scFv, 240 nM lysozyme

B1: Anti-HEWL Design 1, human IgG1 (antibody, V domains shown)
VH: EVQLVQSGAEVKKPGATVKISCKVSGYTFSTYWMEWVQQAPGKGLEWMGEVLPGSGSTYYAEKFQGRVTITADTSTDTAYMELSSLRSEDTAVYYCARGDGYFQHWGQGTLVTVSS
VL: DIQMTQSPSSLSASVGDRVTITCRASQSISSNLNWYQQKPGKAPKLLIYYASSLQSGVPSRFSGSGSGTDFTLTISSLQPEDFATYYCQQSNSWPRTFGPGTKVDIKR
notes: also called Des 1; Des1
- binding [1]: binds

B2: Anti-HEWL Design 1, scFv on yeast surface (scFv, V domains shown, not shown: large carriers; small tags and cut ends)
VH: B1 VH
VL: DIQMTQSPSSLSASVGDRVTITCRASQSISSNLNWYQQKPGKAPKLLIYYASSLQSGVPSRFSGSGSGTDFTLTISSLQPEDFATYYCQQSNSWPRTFGPGTKVDIK
- binding [2]: binds
